From the supplement of paper PMC10973195 come the findings set out here.

The structures appear in SMILES notation. ± gives the standard deviation of the averaged measurements. Some of the results follow. Values are raw readings; no control value is given beside them.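 The test system is a mixed culture of neurons, microglia and astrocytes in which bacterial LPS triggers microglia-driven neuron loss, modelling inflammatory neurodegeneration. Each compound was compared with vehicle (DMSO) wells on the same plates, and the SYK inhibitor BAY61-3606 served as the reference neuroprotective control.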

One assay concerns rat primary cerebellar neuron-glia coculture. Put plainly: necrotic cell count (DRAQ7+) per image field (cells per field); higher = more necrosis. The note with it: LPS 0 ng/mL; 1 µM; treatment time 3 days. The procedure:
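Primary rat (P3-7) cerebellar neuron-glia cocultures in 384-well plates were treated at DIV7 with 1 uM compound, then with or without 100 ng/mL LPS 30 min later, for 3 days. At DIV10 live cells were stained with Hoechst 33342, NeuO (live neurons), IB4-AF594 (microglia) and DRAQ7 (necrotic cells) and imaged at 10x (4 fields per well, IN Cell Analyzer 6000). Cells were classified with Cellpose/CellProfiler plus a Random Trees classifier. Values are per-well mean counts per image field (raw, not min-max normalised) and the median microglial FormFactor per image. Three technical replicates per repeat across 4 biological repeats; DMSO and BAY61-3606 serve as controls.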
The compound `COC(=O)C1=C(C)NC(C)=C(C(=O)OC)C1c1ccccc1[N+](=O)[O-]` registered a necrotic cell count of 74.6 ± 16.
For `O=C1NCCCc2c1oc1ccc(O)cc21`, the necrotic cell count stood at 97.2 ± 40.
In turn, `Cc1[nH]c(/C=C2\C(=O)Nc3ccc(S(=O)(=O)N(C)c4cccc(Cl)c4)cc32)c(C)c1C(=O)N1CCN(C)CC1` showed a necrotic cell count of 86 ± 29.
Regarding `CC(C)Oc1ccc(-c2cnc3c(-c4ccnc5ccccc45)cnn3c2)cc1`, the necrotic cell count amounted to 84.7 ± 36.
Same read-out and setting: under `CC(C)NCC(O)c1ccc(O)c(O)c1` (stereo not given) stands 82.5 ± 24; under `CNC(=O)c1ccccc1Nc1cc(Nc2ccc(N3CCOCC3)cc2OC)ncc1C(F)(F)F`, 65.5 ± 30.
Compound `O=C(NOC[C@H](O)CO)c1ccc(F)c(F)c1Nc1ccc(I)cc1F` had a necrotic cell count of 328 ± 88.
In turn, `Cc1cccc(Nc2nc(N[C@@H]3CCCC[C@@H]3N)ncc2C(N)=O)c1` displayed a necrotic cell count of 214 ± 63.
For `COc1ccc(-c2nc(-c3cccs3)[nH]c2-c2ccc(OC)cc2)cc1`, the necrotic cell count was 76.2 ± 28.
On the same count and under the same terms, under `Cc1cc(NC(=O)NCCN2CCC(O)(Cc3ccccc3)CC2)c2ccccc2n1` stands 83.9 ± 34; under `N#Cc1cn(-c2c[nH]n(-c3cc(N4CC(F)(F)C4)ncn3)c2=O)cn1`, 97.7 ± 40; under `CCCCc1oc2ccccc2c1C(=O)c1cc(I)c(OCCN(CC)CC)c(I)c1`, 78.5 ± 24.
As for `O=C(NCC1(c2ccc(F)cc2)CCCC1)C1CCN(Cc2ccccc2)CC1`, the necrotic cell count was found to be 79.2 ± 21.
`COC(=O)Nc1ccc2[nH]cc(CCNC(C)=O)c2c1` gave a necrotic cell count of 85.5 ± 33.
On the same count and under the same terms, under `CCn1c(-c2nonc2N)nc2ccccc21` stands 52.4 ± 22; under `O=C(O)Cc1ccccc1Nc1c(Cl)cccc1Cl`, 80.6 ± 27.
As to `NC[C@H](O)c1ccc(O)c(O)c1`, the necrotic cell count worked out at 127 ± 30.
Compound `Cc1cc(O)c(-c2ccc([C@@H](C)CN(C)C)cc2)c2c1[nH]c(=O)c1sccc12` showed a necrotic cell count of 426 ± 120.
The compound `CCN(CC)CCOC(=O)C1(c2ccccc2)CCCC1` came in with a necrotic cell count of 75.7 ± 24.
On to `CCOC(=O)c1ccc(NC(=O)CSc2nc3c(c(=O)n2-c2ccccc2)SCC3)cc1`, for which the necrotic cell count came to 86.2 ± 43.

Staying with this assay, now noted: LPS 100 ng/mL; 1 µM; treatment time 3 days.
Turning to `COC(=O)C1=C(C)NC(C)=C(C(=O)OC)C1c1ccccc1[N+](=O)[O-]`, the necrotic cell count came out at 1030 ± 290.
Take `O=C1NCCCc2c1oc1ccc(O)cc21`: the necrotic cell count was 953 ± 360.
The compound `Cc1[nH]c(/C=C2\C(=O)Nc3ccc(S(=O)(=O)N(C)c4cccc(Cl)c4)cc32)c(C)c1C(=O)N1CCN(C)CC1` registered a necrotic cell count of 992 ± 280.
Regarding `CC(C)Oc1ccc(-c2cnc3c(-c4ccnc5ccccc45)cnn3c2)cc1`, the necrotic cell count worked out at 947 ± 240.
On the same count and under the same terms, under `CC(C)NCC(O)c1ccc(O)c(O)c1` (stereo not given) stands 851 ± 370; under `CNC(=O)c1ccccc1Nc1cc(Nc2ccc(N3CCOCC3)cc2OC)ncc1C(F)(F)F`, 809 ± 400; under `O=C(NOC[C@H](O)CO)c1ccc(F)c(F)c1Nc1ccc(I)cc1F`, 1540 ± 740.
On to `Cc1cccc(Nc2nc(N[C@@H]3CCCC[C@@H]3N)ncc2C(N)=O)c1`, for which the necrotic cell count stood at 245 ± 170.
On to `COc1ccc(-c2nc(-c3cccs3)[nH]c2-c2ccc(OC)cc2)cc1`, for which the necrotic cell count turned out to be 799 ± 350.
The compound `Cc1cc(NC(=O)NCCN2CCC(O)(Cc3ccccc3)CC2)c2ccccc2n1` displayed a necrotic cell count of 949 ± 260.
In turn, `N#Cc1cn(-c2c[nH]n(-c3cc(N4CC(F)(F)C4)ncn3)c2=O)cn1` displayed a necrotic cell count of 761 ± 260.
`CCCCc1oc2ccccc2c1C(=O)c1cc(I)c(OCCN(CC)CC)c(I)c1`: the necrotic cell count is 951 ± 260.
For `O=C(NCC1(c2ccc(F)cc2)CCCC1)C1CCN(Cc2ccccc2)CC1`, the necrotic cell count came out at 1110 ± 400.
The compound `COC(=O)Nc1ccc2[nH]cc(CCNC(C)=O)c2c1` displayed a necrotic cell count of 1010 ± 460.
For the compound `CCn1c(-c2nonc2N)nc2ccccc21`, the necrotic cell count turned out to be 776 ± 250.
`O=C(O)Cc1ccccc1Nc1c(Cl)cccc1Cl` came in with a necrotic cell count of 860 ± 300.
The same measure, in the same setting: under `NC[C@H](O)c1ccc(O)c(O)c1` stands 126 ± 51; under `Cc1cc(O)c(-c2ccc([C@@H](C)CN(C)C)cc2)c2c1[nH]c(=O)c1sccc12`, 500 ± 150.
Take `CCN(CC)CCOC(=O)C1(c2ccccc2)CCCC1`: the necrotic cell count came to 875 ± 170.
`CCOC(=O)c1ccc(NC(=O)CSc2nc3c(c(=O)n2-c2ccccc2)SCC3)cc1` yielded a necrotic cell count of 1110 ± 280.
